According to ChEMBL document CHEMBL5625199, “Discovery of triazole-bridged aryl adamantane analogs as an intriguing class of multifunctional agents for treatment of Alzheimer's disease” (Eur J Med Chem, 2023):

Test: in vitro
Details: PAMPA

In the case of `COc1cc2c(cc1OC)C(=O)C(CC1CCN(Cc3ccccc3)CC1)C2` (stereo unspecified) [DONEPEZIL], the Papp at 18 h, 25 ug/ml is reported as 8.68 ×10⁻⁶ cm/s.
